No constants are given. Whether binding was seen depends on the method and setting. In cells and extracts the contact can be indirect. Some entries that bind do so weakly or less than the wild type. For some of these results: Tags and fused reporters may be left off the sequences shown. Blank lines part the entries; values can stand above or below the molecule they belong to.
Experiments:
[1] = target: T1, GST-FRMD8 (human) (UniProt Q9BZ67); experiment: pull-down; purified GST or GST-FRMD8 anchored on Glutathione Sepharose 4B beads, incubated with whole-cell lysate of HEK293T cells transfected with Flag-ERα, 4°C over 4 h, PBS washes, western blot; only the target purified
T1 sequence: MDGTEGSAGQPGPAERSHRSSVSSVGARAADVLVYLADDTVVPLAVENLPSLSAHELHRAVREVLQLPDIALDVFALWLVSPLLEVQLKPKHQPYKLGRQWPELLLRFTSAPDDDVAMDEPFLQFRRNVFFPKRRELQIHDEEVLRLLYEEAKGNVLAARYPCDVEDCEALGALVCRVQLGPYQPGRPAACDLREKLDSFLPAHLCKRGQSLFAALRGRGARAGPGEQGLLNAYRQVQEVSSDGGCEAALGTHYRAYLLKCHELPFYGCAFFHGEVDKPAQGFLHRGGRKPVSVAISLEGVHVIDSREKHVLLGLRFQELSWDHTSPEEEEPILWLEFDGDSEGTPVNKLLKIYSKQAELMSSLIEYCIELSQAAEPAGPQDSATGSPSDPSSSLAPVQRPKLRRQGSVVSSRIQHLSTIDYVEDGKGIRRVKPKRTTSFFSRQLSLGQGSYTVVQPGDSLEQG

Protein sequences, listed by entry. Tags and fused reporters are not part of them. Lines headed by an entry give the natural chain unless they say otherwise; changes in a name come on top.
UniProt P03372: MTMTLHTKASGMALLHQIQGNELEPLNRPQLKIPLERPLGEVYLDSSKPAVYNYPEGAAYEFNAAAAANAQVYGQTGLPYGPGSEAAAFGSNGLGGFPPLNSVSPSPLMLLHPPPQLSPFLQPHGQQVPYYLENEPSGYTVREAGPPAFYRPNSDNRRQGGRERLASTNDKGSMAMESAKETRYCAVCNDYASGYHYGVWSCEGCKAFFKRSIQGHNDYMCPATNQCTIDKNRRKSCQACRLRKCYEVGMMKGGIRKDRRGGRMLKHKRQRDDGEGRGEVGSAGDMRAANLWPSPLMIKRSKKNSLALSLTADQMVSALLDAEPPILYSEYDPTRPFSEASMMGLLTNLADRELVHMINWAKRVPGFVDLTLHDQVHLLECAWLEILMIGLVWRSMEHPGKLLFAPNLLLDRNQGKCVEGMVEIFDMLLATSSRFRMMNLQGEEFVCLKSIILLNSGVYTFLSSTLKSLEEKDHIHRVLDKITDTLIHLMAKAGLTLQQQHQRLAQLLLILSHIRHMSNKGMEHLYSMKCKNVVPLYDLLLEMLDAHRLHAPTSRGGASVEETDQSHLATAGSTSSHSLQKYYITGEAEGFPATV
UniProt Q05086: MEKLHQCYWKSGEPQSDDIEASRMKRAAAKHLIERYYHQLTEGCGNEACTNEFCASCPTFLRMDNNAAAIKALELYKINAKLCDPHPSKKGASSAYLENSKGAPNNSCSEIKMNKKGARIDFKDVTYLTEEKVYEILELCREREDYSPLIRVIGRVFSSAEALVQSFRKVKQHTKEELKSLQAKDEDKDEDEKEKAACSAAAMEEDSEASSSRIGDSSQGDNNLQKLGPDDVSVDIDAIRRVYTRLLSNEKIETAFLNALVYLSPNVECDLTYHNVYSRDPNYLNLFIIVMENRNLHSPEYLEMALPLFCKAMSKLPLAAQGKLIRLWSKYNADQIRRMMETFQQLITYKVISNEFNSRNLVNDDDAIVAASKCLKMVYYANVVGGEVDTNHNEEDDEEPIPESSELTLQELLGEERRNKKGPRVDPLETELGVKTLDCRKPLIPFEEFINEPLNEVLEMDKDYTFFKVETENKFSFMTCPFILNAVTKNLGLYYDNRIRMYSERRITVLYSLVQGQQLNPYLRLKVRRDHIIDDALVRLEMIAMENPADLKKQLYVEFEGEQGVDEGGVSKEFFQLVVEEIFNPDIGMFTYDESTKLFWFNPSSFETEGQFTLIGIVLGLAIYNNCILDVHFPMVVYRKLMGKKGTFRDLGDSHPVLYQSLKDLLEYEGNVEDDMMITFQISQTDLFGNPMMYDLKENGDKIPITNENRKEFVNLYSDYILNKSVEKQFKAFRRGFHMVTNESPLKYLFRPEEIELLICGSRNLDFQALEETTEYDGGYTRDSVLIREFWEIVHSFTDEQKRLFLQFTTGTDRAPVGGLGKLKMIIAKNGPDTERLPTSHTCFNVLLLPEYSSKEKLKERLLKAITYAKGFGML

[2] = target: T2, Flag-FRMD8 (human) (UniProt Q9BZ67); experiment: co-IP; lysates of MCF7 and T47D cells transfected with Flag or Flag-FRMD8, anti-Flag immunoprecipitation, immunoblot for ERα and Flag; RIPA buffer washes
T2 sequence: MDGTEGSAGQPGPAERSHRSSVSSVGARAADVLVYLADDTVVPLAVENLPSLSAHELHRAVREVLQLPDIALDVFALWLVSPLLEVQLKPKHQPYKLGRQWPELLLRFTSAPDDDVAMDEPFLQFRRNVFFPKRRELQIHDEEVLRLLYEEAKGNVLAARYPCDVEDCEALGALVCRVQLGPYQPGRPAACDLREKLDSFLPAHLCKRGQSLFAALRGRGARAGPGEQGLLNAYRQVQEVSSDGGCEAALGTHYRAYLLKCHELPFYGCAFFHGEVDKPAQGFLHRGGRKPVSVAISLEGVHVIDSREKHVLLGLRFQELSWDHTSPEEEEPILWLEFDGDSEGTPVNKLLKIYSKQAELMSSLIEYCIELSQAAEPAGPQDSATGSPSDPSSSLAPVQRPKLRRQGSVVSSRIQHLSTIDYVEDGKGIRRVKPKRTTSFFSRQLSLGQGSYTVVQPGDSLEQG

[3] = target: Flag-ERα (human) (UniProt P03372); experiment: co-IP; HEK293T and T47D cells co-transfected with Flag-ERα, HA-Ub and control or FRMD8 siRNA, MG132 (25 μM) for 6 h; whole-cell lysates immunoprecipitated with anti-Flag, immunoblot
[4] = target: T2, Flag-FRMD8 (human); experiment: co-IP; lysates of HEK293T cells transfected with Flag, Flag-FRMD8 or Flag-UBE3A, anti-Flag immunoprecipitation, immunoblot
[5] = target: endogenous ERα (human (endogenous in MCF7 and T47D)) (UniProt P03372); experiment: co-IP; endogenous proteins; MCF7 lysates immunoprecipitated with IgG or anti-ERα, immunoblot for FRMD8 and ERα
[6] = target: Flag-UBE3A (UniProt Q05086); experiment: co-IP; lysates of HEK293T cells transfected with Flag, Flag-FRMD8 or Flag-UBE3A, anti-Flag immunoprecipitation, immunoblot

Molecule: Flag-ERα (from UniProt P03372 1-595) (receptor)
binding [1]: binds

B1: endogenous FRMD8 (protein, UniProt Q9BZ67 1-464)
chain: MDGTEGSAGQPGPAERSHRSSVSSVGARAADVLVYLADDTVVPLAVENLPSLSAHELHRAVREVLQLPDIALDVFALWLVSPLLEVQLKPKHQPYKLGRQWPELLLRFTSAPDDDVAMDEPFLQFRRNVFFPKRRELQIHDEEVLRLLYEEAKGNVLAARYPCDVEDCEALGALVCRVQLGPYQPGRPAACDLREKLDSFLPAHLCKRGQSLFAALRGRGARAGPGEQGLLNAYRQVQEVSSDGGCEAALGTHYRAYLLKCHELPFYGCAFFHGEVDKPAQGFLHRGGRKPVSVAISLEGVHVIDSREKHVLLGLRFQELSWDHTSPEEEEPILWLEFDGDSEGTPVNKLLKIYSKQAELMSSLIEYCIELSQAAEPAGPQDSATGSPSDPSSSLAPVQRPKLRRQGSVVSSRIQHLSTIDYVEDGKGIRRVKPKRTTSFFSRQLSLGQGSYTVVQPGDSLEQG
binding [5]: binds
binding [3]: binds
binding [6]: binds

Further lines, results first:

binding [2]: binds
Molecule: endogenous ERα (from UniProt P03372 1-595) (receptor)

binding [3]: binds
binding [4]: binds
Molecule: endogenous UBE3A (from UniProt Q05086 1-875) (enzyme)

— paper PMC11991697
